From PubChem BioAssay AID2677 (National Center for Advancing Translational Sciences (NCATS), 2010)
The shares of active, inactive and inconclusive entries below differ from those in the screen. A potency beside an inconclusive call is a rough fit, not a confirmed value. Activity calls are given as the source filed them. Calls come from the whole dose curve; as a rule, active = well fitted inhibition curve with a large enough effect; inconclusive = small, poorly fitted or top-dose-only effect; inactive = no such curve, though single readings can be large or run the other way.

Protein sequences, listed by entry. Tags and fused reporters are not part of them. Residues count along the entry.
UniProt B2RXH2, 1-337 limits assumed: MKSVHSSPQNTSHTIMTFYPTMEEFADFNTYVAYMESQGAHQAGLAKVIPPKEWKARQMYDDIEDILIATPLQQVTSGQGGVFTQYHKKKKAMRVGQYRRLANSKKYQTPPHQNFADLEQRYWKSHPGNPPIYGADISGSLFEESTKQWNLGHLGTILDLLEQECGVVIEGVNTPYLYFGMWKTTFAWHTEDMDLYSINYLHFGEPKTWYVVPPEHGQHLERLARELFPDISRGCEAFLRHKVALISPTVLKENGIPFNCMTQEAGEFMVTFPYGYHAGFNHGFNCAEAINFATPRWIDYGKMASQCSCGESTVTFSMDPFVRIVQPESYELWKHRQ

Target: Lysine-specific demethylase 4E (Homo sapiens) (UniProt B2RXH2)
Assay: Confirmation qHTS Assay for Inhibitors of Human Jumonji Domain Containing 2E (JMJD2E)
Conditions: Recombinant JMJD2E, FDH-coupled NADH fluorescence (FDH is formaldehyde dehydrogenase)
Description: The fine interplay among methylation states of several lysine residues on the tails of histone proteins is a major determinant of the transcriptional state of the associated DNA coding regions and is commonly referred to as the histone code. Histone lysine demethylases catalyze the removal of methyl groups from methylated lysine sidechains on histones H3 and H4, thus antagonizing the reactions catalyzed by histone lysine methyltransferases. […] In search for novel inhibitors of JMJD2E demethylase, a member of the largest set of histone demethylases belonging to the Fe(II) and 2-oxoglutarate oxygenase (2OG) superfamily, we performed a quantitative high-throughput screen (Inglese 2006) by using an assay which utilizes a trimethylated peptide substrate corresponding to a fragment of histone H3 (sequence ARKme3STGGK) with detection of the formaldehyde co-product in real time by a formaldehyde dehydrogenase (FDH) coupled reaction. FDH catalyzes oxidation of formaldehyde to formic acid with the concomitant reduction of the non-fluorescent beta-nicotinamide adenine dinucleotide hydrate (NAD+) cofactor to the fluorescent NADH co-product. References: Inglese, J., Auld, D., Jadhav, A., Johnson, R., Simeonov, A., Yasgar, A., Zheng, W. and Austin, C. Proc Natl Acad Sci USA 2006, 103, 11473-11478. N. R. Rose, S. S. Ng, J. Mecinovic, B. M. Lienard, S. H. Bello, Z. Sun, M. A. McDonough, U. Oppermann and C. […]
Reagents and Controls: Ferrous ammonium sulfate, (+)-sodium L-ascorbate, beta-nicotinamide adenine dinucleotide hydrate (NAD+), Tween-20, formaldehyde dehydrogenase from P. putida (FDH), and disodium 2-oxoglutarate were from Sigma (St. Louis, MO). […] The plate was transferred to ViewLux imager where an initial reading using standard UV optics (Ex 340 nm, Em 450 nm) was obtained. The plate was then removed from the reader, incubated for 30 minutes at room temperature, and returned to the reader for a second fluorescence reading. […] For activity calculations, percent values were computed as the difference in fluorescence intensity between last and first time points. […]

| SMILES | Potency |
| --- | --- |
| CN1CC[C@]2(C)c3cc(O)ccc3N(C)[C@@H]12 | active: 10 µM |
| O=C(O)c1ccc(O)c2ncc(N3CCNCC3)cc12 | inconclusive: 6.46 µM [inhibitor, partial curve, poor fit] |
| Oc1cccc2cc(N3CCNCC3)cnc12 | inconclusive: 5.76 µM [inhibitor, partial curve] |
